Drawing on publication PMC3812036, this text covers binding for two molecules.

Amino acid sequences for entries named in this document (tags omitted).
UniProt P50750: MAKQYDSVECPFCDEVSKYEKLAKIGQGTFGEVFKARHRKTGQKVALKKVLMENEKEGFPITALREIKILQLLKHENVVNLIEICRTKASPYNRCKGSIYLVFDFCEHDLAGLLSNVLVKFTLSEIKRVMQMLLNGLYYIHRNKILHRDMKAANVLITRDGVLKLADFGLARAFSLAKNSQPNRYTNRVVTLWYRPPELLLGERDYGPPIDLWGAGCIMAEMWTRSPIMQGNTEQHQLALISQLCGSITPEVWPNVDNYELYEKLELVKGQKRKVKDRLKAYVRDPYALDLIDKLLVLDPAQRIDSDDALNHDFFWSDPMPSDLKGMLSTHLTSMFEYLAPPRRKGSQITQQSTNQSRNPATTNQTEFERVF

One experiment has as its target T1, Myc-tagged ZASC1 (UniProt Q9UID6).
T1 sequence: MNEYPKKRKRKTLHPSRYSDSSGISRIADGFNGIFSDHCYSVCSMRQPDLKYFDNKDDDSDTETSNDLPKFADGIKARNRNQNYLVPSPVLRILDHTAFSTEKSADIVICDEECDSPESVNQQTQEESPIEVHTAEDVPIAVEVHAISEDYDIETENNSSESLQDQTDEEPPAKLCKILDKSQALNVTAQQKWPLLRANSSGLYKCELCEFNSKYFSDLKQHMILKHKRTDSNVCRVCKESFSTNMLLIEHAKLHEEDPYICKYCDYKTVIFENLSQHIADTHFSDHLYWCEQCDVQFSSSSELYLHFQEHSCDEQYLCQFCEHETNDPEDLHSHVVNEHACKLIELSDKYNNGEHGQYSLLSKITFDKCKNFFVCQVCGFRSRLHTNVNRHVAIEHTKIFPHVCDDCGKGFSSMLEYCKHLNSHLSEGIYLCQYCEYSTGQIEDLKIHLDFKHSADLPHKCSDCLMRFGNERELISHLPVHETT
Nature of the experiment: co-IP; HEK293 cells transfected with Myc-ZASC1 and eGFP, untreated or treated with 10 µM DRB or 1 µg/ml actinomycin D for one h; lysate fractionated on a 5% to 45% glycerol gradient; fractions pooled in pairs and immunoprecipitated with non-specific mouse IgG or mouse anti-Myc IgG; western blot. (In general: Immunoblotting shows a protein as a band on a membrane.)

Another experiment deals with Myc-tagged CDK9 (UniProt P50750). The experiment can be described thus: co-IP.

No constants are given. Whether binding was seen depends on the method and setting. In cells and extracts the contact can be indirect. Some binding calls cover weakened binding; strength is not graded here. Sequences can lack the tags named with a protein.

In the case of “Endogenous CDK9 (from UniProt P50750 1-372)”, in the experiment with Myc-tagged ZASC1, the binding entry was “binds”.

B1: FLAG-tagged ZASC1 (protein, UniProt Q9UID6 1-485)
chain: T1 sequence
For the molecule B1, the binding result with Myc-tagged CDK9 is “binds”.
